Data on one sequence can be found in article PMC7567884.

Construct, isoform or probe ends are uncertain for at least one entry. No signal at the amounts used counts as a negative. Protein sequences can lack the tags named with them.

This data set addresses T1, His-LexA (Synechocystis sp. PCC 6803) (UniProt P73722).
T1 sequence (looked up, limits assumed): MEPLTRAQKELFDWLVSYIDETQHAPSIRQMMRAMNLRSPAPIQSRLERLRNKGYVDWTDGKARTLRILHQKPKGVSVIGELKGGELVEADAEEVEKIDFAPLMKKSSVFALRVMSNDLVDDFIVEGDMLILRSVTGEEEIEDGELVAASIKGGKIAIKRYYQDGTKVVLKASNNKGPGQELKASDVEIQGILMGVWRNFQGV
Kind of data set: EMSA. The note with it: DIG Gel Shift Kit 2nd generation (Roche), as in Kizawa et al. (ref 9); 6% polyacrylamide gel; pH and temperature not given; recombinant protein; protein details: N-terminal 6xHis; label: 3' DIG-ddUTP; probe letters rebuilt from the primers and the ….

For “GAAATGGGACGCACTTCTGGTCAGTTTATAGCAAAAATGCTGGGGAAAGGAAGACAACTAGGGAAAAAGAACAGGACATCAAATGGTCATTCCCCAGACCCTGGCGTCTTTGCCAGAGTAATCTCCCTGGCGCGGATGTTACACAAATGTAACGAAAAATATTTTCCCTCTCAGAATTTAGGCAAAGTGCCCAAACCCATCCTAGGCAAGCAATTCGTCCACCAACAAAAAGCTCTTTTGGTCAACAGACTTGACAAAAATCTTAACAATACGTTACATTTATTTACATAAGGTTACAAAATAAAAACCTCAAATACCCAATCAAGGAGATCAACACT (double strand) [PhliB]”, the binding result is “no binding”.
